Measurements from publication PMC10316081.
No constants are given. Whether binding was seen depends on the method and setting. In cells and extracts the contact can be indirect. Some results given as binding are weak or reduced against the parent protein; the word gives no strength.

Chains of the proteins cited; added tags and fusions are not shown. Lines headed by an entry give the natural chain unless they say otherwise; changes in a name come on top.
UniProt O75140: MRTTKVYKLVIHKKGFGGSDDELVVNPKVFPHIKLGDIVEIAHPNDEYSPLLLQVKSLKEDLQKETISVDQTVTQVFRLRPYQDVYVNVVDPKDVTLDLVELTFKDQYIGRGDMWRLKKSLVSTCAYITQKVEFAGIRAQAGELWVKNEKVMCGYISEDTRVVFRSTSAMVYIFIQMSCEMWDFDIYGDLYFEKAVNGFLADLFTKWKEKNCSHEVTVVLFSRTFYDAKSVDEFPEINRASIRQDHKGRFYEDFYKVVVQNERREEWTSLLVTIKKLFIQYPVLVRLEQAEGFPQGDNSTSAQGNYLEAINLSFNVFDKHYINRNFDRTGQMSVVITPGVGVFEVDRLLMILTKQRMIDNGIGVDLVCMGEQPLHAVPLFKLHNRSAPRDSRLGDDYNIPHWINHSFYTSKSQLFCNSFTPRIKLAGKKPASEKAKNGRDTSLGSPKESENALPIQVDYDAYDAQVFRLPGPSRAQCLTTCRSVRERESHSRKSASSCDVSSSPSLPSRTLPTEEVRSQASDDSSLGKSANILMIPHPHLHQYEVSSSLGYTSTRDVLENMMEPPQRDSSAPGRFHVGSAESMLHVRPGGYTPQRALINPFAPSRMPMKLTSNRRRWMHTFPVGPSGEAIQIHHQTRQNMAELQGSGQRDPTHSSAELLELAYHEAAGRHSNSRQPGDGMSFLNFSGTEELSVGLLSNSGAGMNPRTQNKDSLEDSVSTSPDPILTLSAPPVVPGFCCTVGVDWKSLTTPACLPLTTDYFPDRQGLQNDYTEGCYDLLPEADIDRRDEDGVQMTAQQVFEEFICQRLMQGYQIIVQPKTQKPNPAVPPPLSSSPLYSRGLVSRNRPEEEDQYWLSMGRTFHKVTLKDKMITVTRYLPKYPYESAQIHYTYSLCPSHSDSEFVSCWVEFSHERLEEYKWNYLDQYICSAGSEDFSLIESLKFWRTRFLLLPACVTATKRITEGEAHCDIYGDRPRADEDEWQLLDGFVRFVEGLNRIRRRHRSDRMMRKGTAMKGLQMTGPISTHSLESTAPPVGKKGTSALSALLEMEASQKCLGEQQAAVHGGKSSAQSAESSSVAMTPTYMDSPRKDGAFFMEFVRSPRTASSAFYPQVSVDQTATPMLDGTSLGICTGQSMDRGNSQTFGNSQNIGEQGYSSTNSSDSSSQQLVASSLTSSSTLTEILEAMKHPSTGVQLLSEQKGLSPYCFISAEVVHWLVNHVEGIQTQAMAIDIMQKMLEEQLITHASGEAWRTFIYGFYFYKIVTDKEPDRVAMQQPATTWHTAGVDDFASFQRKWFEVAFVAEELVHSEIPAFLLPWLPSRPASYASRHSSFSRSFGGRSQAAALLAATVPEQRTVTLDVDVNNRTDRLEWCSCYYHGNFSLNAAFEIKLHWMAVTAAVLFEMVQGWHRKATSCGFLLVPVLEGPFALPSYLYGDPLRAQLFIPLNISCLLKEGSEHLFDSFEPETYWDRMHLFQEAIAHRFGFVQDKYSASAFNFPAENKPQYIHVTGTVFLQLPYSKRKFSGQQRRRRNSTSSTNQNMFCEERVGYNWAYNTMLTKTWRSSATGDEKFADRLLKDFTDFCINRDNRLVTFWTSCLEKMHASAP

Assays:
[1] = biological target: HA-tagged Depdc5(R1407D) (human) (UniProt O75140); experiment: co-IP; HA-tagged Depdc5 stably expressed in Depdc5-knockout HEK-293T; cells lysed in Triton lysis buffer (1% Triton); immunoprecipitate blotted for Nprl2 and Nprl3
[2] = biological target: HA-tagged wild-type Depdc5 (human) (UniProt O75140); experiment: as above

binding [1]	binding [2]	Binder
binds	binds	Nprl2 (endogenous) (protein, UniProt Q8WTW4 1-380) MGSGCRIECIFFSEFHPTLGPKITYQVPEDFISRELFDTVQVYIITKPELQNKLITVTAMEKKLIGCPVCIEHKKYSRNALLFNLGFVCDAQAKTCALEPIVKKLAGYLTTLELESSFVSMEESKQKLVPIMTILLEELNASGRCTLPIDESNTIHLKVIEQRPDPPVAQEYDVPVFTKDKEDFFNSQWDLTTQQILPYIDGFRHIQKISAEADVELNLVRIAIQNLLYYGVVTLVSILQYSNVYCPTPKVQDLVDDKSLQEACLSYVTKQGHKRASLRDVFQLYCSLSPGTTVRDLIGRHPQQLQHVDERKLIQFGLMKNLIRRLQKYPVRVTREEQSHPARLYTGCHSYDEICCKTGMSYHELDERLENDPNIIICWK
binds	binds	Nprl3 (endogenous) (protein, UniProt Q12980 1-569) MRDNTSPISVILVSSGSRGNKLLFRYPFQRSQEHPASQTSKPRSRYAASNTGDHADEQDGDSRFSDVILATILATKSEMCGQKFELKIDNVRFVGHPTLLQHALGQISKTDPSPKREAPTMILFNVVFALRANADPSVINCLHNLSRRIATVLQHEERRCQYLTREAKLILALQDEVSAMADGNEGPQSPFHHILPKCKLARDLKEAYDSLCTSGVVRLHINSWLEVSFCLPHKIHYAASSLIPPEAIERSLKAIRPYHALLLLSDEKSLLGELPIDCSPALVRVIKTTSAVKNLQQLAQDADLALLQVFQLAAHLVYWGKAIIIYPLCENNVYMLSPNASVCLYSPLAEQFSHQFPSHDLPSVLAKFSLPVSLSEFRNPLAPAVQETQLIQMVVWMLQRRLLIQLHTYVCLMASPSEEEPRPREDDVPFTARVGGRSLSTPNALSFGSPTSSDDMTLTSPSMDNSSAELLPSGDSPLNQRMTENLLASLSEHERAAILSVPAAQNPEDLRMFARLLHYFRGRHHLEEIMYNENTRRSQLLMLFDKFRSVLVVTTHEDPVIAVFQALLP
